Source: PubChem BioAssay AID2685 (National Center for Advancing Translational Sciences (NCATS), 2010)
Several values for one entry are separate records, joined by “and”; a condition that tells them apart may be missing. Equal entries are not always repeated. This is one part of the list. The main result of the screen is listed elsewhere. These columns were measured beside it and carry no call. The list favours compounds with an active or inconclusive main result. Potencies come from curve fits of mixed quality, noted in brackets.

Experiment: qHTS Assay for Lipid Storage Modulators in Drosophila S3 Cells;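 for cell number change: cells counted by Cell Tracker Red CMTPX staining in the red channel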
Details: BODIPY lipid droplet fluorescence, 18-24 h; for cell number change: measured here: cell count max response, cells fed with added oleic acid
From the text: NIH Molecular Libraries Probe Production Centers Network [MLPCN] NIH Chemical Genomics Center [NCGC] MLPCN Grant: 1 R03 MH085686-01 Assay Submitter (PI): Beller, Mathias; Max-Planck-Institut fur Biophysikalische Chemie NCGC Assay Overview: Storing lipids as a reservoir for energy or the anabolism of elementary metabolites is a common feature of probably all cells and is conserved from bacteria to humans. The universal cellular lipid storage organelle is the so-called lipid storage droplet (LD). Although ubiquitous, LDs share a simple structure composed of a hydrophobic core that harbors the storage lipids, which is shielded by a droplet-specific phospholipid monolayer to which proteins are attached. The current model of LD biogenesis involves an incorporation of the lipid core into the membrane leaflets of the endoplasmic reticulum (ER) followed by a subsequent budding-like maturation of a LD, which ultimately pinches off. Once released, LD volume can increase by localized lipogenesis or fusion of existing droplet. Storage lipids are re-mobilized enzymatically by lipase activity. Lipase regulation in the adipocyte is heavily studied and involves multiple components including catecholamine signaling, the LD-associated proteins Perilipin and comparative gene identification (CGI-58) and at least two lipases named hormone sensitive lipase (HSL) and adipocyte triglyceride lipase (ATGL). LD regulation outside of the adipocyte is poorly understood and only few components are known. However, there is an urgent need to learn more about ectopic fat depots as mislocalized storage of lipids, for example in the liver or muscle, is an eminent health problem associated with insulin resistance or the metabolic syndrome. We developed a laser-scanning cytometer assay to enable 1,536-well screening and combined the results of the small molecules screen with an RNAi database based on lipid storage.
Triacsin C (Sigma-Aldrich T-4540), an inhibitor of long-chain fatty acyl CoA synthetase that blocks synthesis of triglycerides, was used as a positive control for lipid under-storage. A total of 23 nL of compound solution of different concentrations were transferred to the assay plates using a Kalypsys pin tool equipped with a 1,536-pin array containing 10-nL slotted pins (FP1S10, 0.457-mm diameter, 50.8 mm long; V&P Scientific). One microliter of oleic acid (400 uM) was added, and the plate was lidded with stainless steel rubber gasket lined lids containing pinholes. […] Fluorescence was detected by excitation of the fluorophores with a 488-nm laser on an Acumen Explorer (TTP Lab Tech). The total intensity in channel 2 (500-530 nm) reflected lipid droplet accumulation. Cells were detected using channel 3 (575-640 nm) with 5-um width and 100-um depth filters. The ratio of the number of objects in PMT channel 2 over the number of objects in PMT channel 3 was also calculated. Percent activity was computed relative to an internal control (100% inhibited lipid droplet deposition due to the presence of 20 uM Triacsin C), which was added to 32 wells/plate.

[1] = measured here: lipid fluorescence (Fed channel) AC50, cells fed with added oleic acid
[2] = measured here: cell number channel AC50, cells fed with added oleic acid

Row | SMILES | cell number change | AC50 [1] | AC50 [2]
1 | CC(NC(=O)C1CCCC1)c1ccc2c(c1)OCCO2 (configuration not stated) | 17.1% | 11.6 µM [rising, single point] | –
2 | CCOC(=O)C1=NN(C(=O)c2ccc(OC)cc2)C(O)(c2ccc(Cl)cc2)C1 (configuration not stated) | 8.53% | 8.2 µM [rising, partial curve] | 3.26 µM [rising, single point]
3 | C=CCN=C1N[C@@H](c2ccccc2)C(C(=O)OC)=C(C)N1CCOC | -10.5% and 10.4% | 7.31 µM [rising, full curve, poor fit] and 29.1 µM [rising, single point] | –
4 | CCCCCC(=O)NC(=S)Nc1ccccc1C(=O)OC | 10.3% | 0.82 µM [falling, full curve] | 3.26 µM [rising, single point]
5 | C=CCN(C(=O)C1CC(=O)N(C2CCCC2)C1)c1nc(-c2ccc(S(C)(=O)=O)cc2)cs1 (configuration not stated) | -18.4% | 7.31 µM [falling, partial curve] | –
6 | CCOC(=O)N1CCC(NC(=O)c2cccn3c(=O)c4cc(Br)ccc4nc23)CC1 | 60.5% | – | –
7 | COc1cc(S(=O)(=O)Nc2ccccc2C(=O)N2CCCC2)ccc1NC(C)=O | 42% | – | 8.2 µM [rising, partial curve]
8 | O=C1[C@H](CC[C@H](O)c2ccc(F)cc2)[C@@H](c2ccc(O)cc2)N1c1ccc(F)cc1 | -28% | 29.1 µM [falling, single point] | –
9 | O=C(N/N=C/c1ccc(-c2ccc([N+](=O)[O-])cc2)o1)c1cccnc1 | -12.7% | 29.1 µM [falling, single point] | –
10 | CCOC(=O)C1CCCN(C(=O)c2sc3nc(-c4ccc(F)cc4)cn3c2C)C1 (configuration not stated) | -32% | 20.6 µM [falling, partial curve] | 16.4 µM [falling, partial curve]
11 | Cc1cc(C)nc(-n2ncc3c2CCCC3=O)n1 | -7.64% | – | 0.517 µM [falling, single point]
12 | CCc1ccccc1NC(=O)CN(C)Cc1nc(N)nc(Nc2ccccc2C)n1 | -10.2% | 16.4 µM [rising, single point] | –
13 | Cc1cc(C)cc(N(C(C)C(=O)Nc2c(C)n(C)n(-c3ccccc3)c2=O)S(C)(=O)=O)c1 (configuration not stated) | 7.62% | – | –
14 | CCCCN(C)Cc1c(C)[nH]c2c(Cl)cccc2c1=O | 122% | 20.6 µM [rising, single point] | 20.6 µM [rising, single point]
15 | O=C(N=C1SC2CS(=O)(=O)CC2N1c1ccccc1Cl)C1CCCO1 (configuration not stated) | -11.5% | 29.1 µM [rising, single point] | –
16 | CCOC(=O)c1c(-c2ccccc2)oc2ccc(OCC(N)=O)cc12 | 11.9% | 29.1 µM [falling, single point] | –
17 | COc1ccc(CNC(=O)CN(C(=O)c2csnn2)c2cccc3c2CCCC3)cc1 | 15.3% | – | 6.51 µM [rising, single point]
18 | COC(=O)c1nn(-c2ccc(Oc3ccccc3)cc2)c(=O)cc1O | -3.4% | – | –
19 | CCCCCCS(=O)Cc1ccccc1 (configuration not stated) | -5.96% | – | 0.058 µM [falling, full curve]

Row | SMILES | cell number change | AC50 [1] | AC50 [2]
20 | O=C(NCCCCNC(=O)c1ccc(Br)cc1)c1ccc(Br)cc1 | 4.72% | 32.6 µM [rising, single point] | –
21 | O=C(N1CCc2[nH]c3ccccc3c2C1)C(F)(F)F | -4.17% | 0.58 µM [falling, single point] | –
22 | c1ccc(C2=Nn3c(nnc3-c3n[nH]c4c3CCC4)SC2)cc1 | – | 6.51 µM [falling, single point] | –
23 | CCOC(=O)c1[nH]c2ccccc2c1NC(=O)NC1CCCCC1 | 23% | 2.31 µM [rising, partial curve] | –
24 | CC(C)(C)NC(NC(=O)Cc1ccccc1)C(Cl)(Cl)Cl (configuration not stated) | 0.197% | 5.17 µM [falling, full curve, poor fit] | –
25 | CC1(C)OC(=O)C(=CSc2ccc(C(C)(C)C)cc2)C(=O)O1 | 49.6% | – | 5.17 µM [rising, full curve, poor fit]
26 | Cc1c(C(=O)N/N=C/c2cccnc2)sc(N)c1C#N | – | – | 6.51 µM [rising, single point]
27 | CCCC(=O)Nc1c2c(nn1-c1ccc(C)cc1)CS(=O)(=O)C2 | -3.66% | 0.82 µM [falling, full curve, poor fit] | –
28 | C/C(=C\COc1ccc2ccc(=O)oc2c1)CC[C@@H](O)C(C)(C)O | 10.3% | 18.4 µM [rising, single point] | –
29 | CCNS(=O)(=O)c1ccc(CCC(=O)N2CCN(c3cccc(Cl)c3)CC2)cc1 | 20.9% | 1.03 µM [rising, full curve] | –
30 | Fc1ccc(Nc2nc(N/N=C/c3ccco3)nc(N3CCCCC3)n2)cc1 | 97.5% | 2.06 µM [rising, partial curve, poor fit] | 2.06 µM [rising, partial curve]
31 | Cn1c(=O)c2c(nc(N/N=C3\CCCc4ccccc43)n2Cc2ccc(F)cc2)n(C)c1=O | -50% | 16.4 µM [rising, single point] | 23.1 µM [falling, single point]
32 | O=C(CCNC(=O)c1ccc(Br)cc1)NCc1cccnc1 | – | 0.58 µM [rising, single point] | –
33 | CC1CCc2sc(C(=O)OCC(=O)NCc3ccc(F)cc3)cc2C1 (configuration not stated) | -13.7% | 29.1 µM [falling, single point] | –
34 | O=C(NNC(=O)c1sccc1-n1cccc1)c1ccccc1 | – | 29.1 µM [falling, single point] | –
35 | CCOC(=O)/C(C#N)=C1/C=CNC(=O)N1 | 35.7% | 0.517 µM [rising, full curve, poor fit] | 0.461 µM [rising, full curve]
36 | COc1cccc(C2/C(=C(\O)c3ccc4c(c3)OCCO4)C(=O)C(=O)N2CCCn2ccnc2)c1 (configuration not stated) | 39.9% | – | 0.58 µM [rising, full curve, poor fit]
37 | CCCCC(=O)Nc1nnc(CCOC)s1 | 22.4% | 0.82 µM [falling, partial curve, poor fit] | 0.651 µM [falling, single point]
38 | CC(C)NC(=O)COc1ccc(S(=O)(=O)N2CCCC2)cc1 | -11.9% | – | –

Copied from above, entries 6 to 8
Row | SMILES | cell number change | AC50 [1] | AC50 [2]
6 | CCOC(=O)N1CCC(NC(=O)c2cccn3c(=O)c4cc(Br)ccc4nc23)CC1 | 60.5% | – | –
7 | COc1cc(S(=O)(=O)Nc2ccccc2C(=O)N2CCCC2)ccc1NC(C)=O | 42% | – | 8.2 µM [rising, partial curve]
8 | O=C1[C@H](CC[C@H](O)c2ccc(F)cc2)[C@@H](c2ccc(O)cc2)N1c1ccc(F)cc1 | -28% | 29.1 µM [falling, single point] | –

(list continues)

Row | SMILES | cell number change | AC50 [1] | AC50 [2]
39 | COc1ccc(NS(=O)(=O)c2ccc(NC(=O)C3CC3)cc2)cc1 | 4.69% | – | –
40 | Cc1ccc(C)n1-c1cccc(N)c1 | 1.45% | – | –
41 | O=C(CSc1nnc(CNC(=O)c2cccc(C(F)(F)F)c2)o1)NC1CCCC1 | 33.1% | – | 16.4 µM [rising, partial curve, poor fit]
42 | COc1ccc(NS(=O)(=O)c2ccc3c(c2)Cc2ccccc2-3)cn1 | 33.8% | – | 5.17 µM [rising, partial curve]
43 | Cc1cc(C(=O)CN2c3cccc4cccc(c34)S2(=O)=O)c(C)n1C | 18.3% | 0.164 µM [falling, full curve, poor fit] | –
44 | Cc1ccc(C)c(N2CCN(S(=O)(=O)CC34CCC(CC3=O)C4(C)C)CC2)c1 (configuration not stated) | -8.2% | 0.411 µM [rising, full curve, poor fit] | –
45 | COc1cc2c3nnc(-c4ccccc4)c-3cn(Cc3ccccc3F)c2cc1OC | 14.2% | 3.66 µM [falling, single point] | –
46 | CCOc1ccc(C(=O)NC2CCN(C(=S)Nc3ccccc3C)CC2)cc1 | 21.9% | 0.092 µM [falling, full curve, poor fit] | –
47 | Oc1ccc(Br)cc1/C=N/n1cnc2ccccc21 | -43% | 20.6 µM [falling, single point] | 32.6 µM [falling, single point]
48 | O=C(CC1C(=O)Nc2ccccc2N1CC(=O)N1CCCC1)Nc1ccc(Br)cc1 (configuration not stated) | -11.2% | 7.31 µM [rising, partial curve] | –
49 | O=C(NC1CCCCC1)c1nn2c(C(F)(F)F)cc(-c3ccco3)nc2c1Br | -24.9% | 14.6 µM [falling, partial curve] | 0.13 µM [falling, full curve, poor fit]
50 | Cc1c(Br)c(C(=O)N2CCc3ccccc32)nn1C | 51.6% | 0.411 µM [rising, full curve, poor fit] | 11.6 µM [rising, partial curve, poor fit]
51 | CC(=O)Nc1sc(NC(=O)c2ccc(C)cc2)nc1-c1cccs1 | -30.7% | 29.1 µM [falling, single point] | 18.4 µM [falling, single point]
52 | Cc1noc(C)c1CSCC(=O)N1CCN(c2ccc([N+](=O)[O-])cc2)CC1 | 55.7% | 0.103 µM [falling, full curve, poor fit] | 2.31 µM [rising, full curve]
53 | Cc1ccc(S(=O)(=O)N(C)c2ccc(OCC(=O)Nc3cccc(-n4cnnn4)c3C)cc2)cc1 | 25% | 32.6 µM [rising, single point] | –
54 | O=C(COC(=O)CNC(=O)c1cccc([N+](=O)[O-])c1)Nc1nc2ccccc2s1 | 1.38% | 29.1 µM [rising, single point] | –
55 | COc1ccc(CCNC(=O)CSc2nc(-c3ccco3)cc(C(F)(F)F)n2)cc1 | -9.53% | 6.51 µM [rising, single point] | –
56 | C=CCn1c(SCC(=O)Nc2sccc2C#N)nc2sc(C)c(C)c2c1=O | 4.27% | 0.206 µM [rising, full curve] | –
57 | O=CN1CCN(C(=O)CN2C(=O)c3ccccc3C2=O)CC1 | -7.99% | 25.9 µM [falling, single point] | –
